Laboratory results reported in patent US20220332829A1.
No constants are given. Whether binding was seen depends on the method and setting. Some entries that bind do so weakly or less than the wild type. Where a sequence is shown, tags or fusion partners need not be part of it.

T1: human 4Ig-B7-H3-His protein (human) (UniProt Q5ZPR3)
T1 sequence: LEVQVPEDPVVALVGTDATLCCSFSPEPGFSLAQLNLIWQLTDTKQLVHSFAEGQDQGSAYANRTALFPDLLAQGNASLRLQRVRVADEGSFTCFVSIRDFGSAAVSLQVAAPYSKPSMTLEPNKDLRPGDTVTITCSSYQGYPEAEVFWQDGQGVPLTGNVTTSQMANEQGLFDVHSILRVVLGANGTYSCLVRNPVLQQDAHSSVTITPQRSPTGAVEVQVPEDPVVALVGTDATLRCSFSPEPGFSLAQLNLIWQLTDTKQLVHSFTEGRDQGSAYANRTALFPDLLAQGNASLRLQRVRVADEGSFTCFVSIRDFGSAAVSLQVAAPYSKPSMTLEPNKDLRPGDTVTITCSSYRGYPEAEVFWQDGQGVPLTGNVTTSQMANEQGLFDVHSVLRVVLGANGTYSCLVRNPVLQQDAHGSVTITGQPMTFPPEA

B1: hBRCA84D (antibody, human IgG1, kappa, V domains shown)
VH: EVQLVESGGGLVQPGGSLRLSCAASGFTFSSFGMHWVRQAPGKGLEWVAYISSDSSAIYYADTVKGRFTISRDNAKNSLYLQMNSLRDEDTAVYYCGRGRENIYYGSRLDYWGQGTTVTVSS
VL: DIQLTQSPSFLSASVGDRVTITCKASQNVDTNVAWYQQKPGKAPKALIYSASYRYSGVPSRFSGSGSGTDFTLTISSLQPEDFATYYCQQYNNYPFTFGQGTKLEIKR
B2: hu51-G34K-12 (antibody, human IgG1, V domains shown)
VH: EVQLVESGGGLVKPGGSLRLSCAASGFTFSSFGMSWVRQAPGKGLEWVATINSGDNYSYSPDSVKGRFTISRDNAKNSLYLQMNSLRAEDTAVYYCARPHIFYYGSPAWFAYWGQGTLVTVSS
VL: DVVMTQSPLSLPVTLGQPASISCRSRQSLVHSNKNTYLHWFQQRPGQSPRLLIYKVSNRFSGVPDRFSGSGSGTDFTLKISRVEAEDVGVYYCSQSTHVPLTFGGGTKVEIK
B3: hu65-13 (antibody, human IgG1, V domains shown)
VH: EVQLVESGGGLVQPGGSLRLSCAASGFTFSDYGIHWVRQAPGKGLEWVSYISSGSNTIYYADTVKGRFTISRDNAKNSLYLQMNSLRAEDTAVYYCATMVTRWFYYAMDYWGQGTTVTVSS
VL: EIVLTQSPATLSLSPGERATLSCSASSSVSYMYWYQQKPGQAPRRLIYDTSKLASGVPARFSGSGSGTDYTLTISSLEPEDFAVYYCQQWSSNPPTFGQGTKLEIK

What was measured:
[1] = biological target: T1, human 4Ig-B7-H3-His protein (human); assay: ELISA, plate coated with human 4Ig-B7-H3-His, detection with anti-human IgG HRP, OD450
[2] = biological target: T1, human 4Ig-B7-H3-His protein (human); assay: ELISA, plate coated with 4Ig-B7-H3-His; positive control
[3] = biological target: T1, human 4Ig-B7-H3-His protein (human); assay: ELISA, plate coated with 4Ig-B7-H3-His
[4] = biological target: T1, human 4Ig-B7-H3-His protein (human); assay: Biacore X100 SPR

Row | Binder | binding [1] | binding [2] | binding [3] | binding [4]
1 | B1 | binds | binds |  | 
2 | B2 | binds |  | binds | binds
3 | B3 |  |  | binds | binds
